Where no end group is shown, it is not given here.

Drawing on patent publication US6686443 (dated 2004), this text covers oxidative folding yield for 14 substances.

The nature of one data set: peptide synthesis. To be noted: oxidative folding step, one disulfide bridge, sequence written open.
With “Ala-Gly-Cys-Lys-Asn-Phe-Phe-Trp-Lys-Thr-Phe-Thr-Ser-Cys (reducedsomatostatin)”, the oxidative folding yield is listed as 99%.

Another data set can be described thus: peptide synthesis. As to conditions: oxidative folding step, single step dithiol to disulfide.
“Ac-CPFAAC-NH2 (cysteine pairing not given here)” gave an oxidative folding yield of 100%.

As to “Ac-KPTCPFCRKT-NH2 (cysteine pairing not given here)”, the oxidative folding yield is reported as 100%. In the case of “Ac-PTCPFCRK-NH2 (cysteine pairing not given here)”, the oxidative folding yield is 100%.

As for “Ac-TCPFCR-NH2 (cysteine pairing not given here)”, the oxidative folding yield amounted to 100%.

In the case of “Ac-TDITCGYCHKLH-NH2 (cysteine pairing not given here)”, the oxidative folding yield was 100%. Turning to “CFGSRIDRIGAQSGMGCGRF (cysteine pairing not given here)”, the oxidative folding yield was 100%. With “HSC(Me)2CH2CO-Tyr(Me)-Phe-Gln-Asn-Cys-Pro-Arg-Gly-NH2”, the oxidative folding yield is listed as 97%. Regarding “RPCPQCFYPLM-NH2 (cysteine pairing not given here)”, the oxidative folding yield amounted to 99%.

The same data set, now with this note: oxidative folding step, single step dithiol to disulfide, one disulfide bridge, sequence written open.
Consider Ac-Cys-Gly-Pro-Cys-NH2, for which the oxidative folding yield was 100%. On the same count and under the same terms, then Ac-Cys-Pro-Phe-Cys-NH2, with 97%; and “Cys-Tyr-Ile-Gln-Asn-Cys-Pro-Leu-Gly-NH2 (reducedoxytocin)”, with 98%.

The substance “Cys-Tyr-Phe-Gln-Asn-Cys (reducedpressinoicacid)” had an oxidative folding yield of 100%. “Cys-Tyr-Phe-Gln-Asn-Cys-Pro-Arg-Gly-NH2 (reducedarginine-vasopressin)” returned an oxidative folding yield of 100%.
